Percent effect of library compounds

By UniProt entry, the sequences of proteins in these tests, tags left out. Residues count along the entry.
UniProt I6X8D2, whole entry: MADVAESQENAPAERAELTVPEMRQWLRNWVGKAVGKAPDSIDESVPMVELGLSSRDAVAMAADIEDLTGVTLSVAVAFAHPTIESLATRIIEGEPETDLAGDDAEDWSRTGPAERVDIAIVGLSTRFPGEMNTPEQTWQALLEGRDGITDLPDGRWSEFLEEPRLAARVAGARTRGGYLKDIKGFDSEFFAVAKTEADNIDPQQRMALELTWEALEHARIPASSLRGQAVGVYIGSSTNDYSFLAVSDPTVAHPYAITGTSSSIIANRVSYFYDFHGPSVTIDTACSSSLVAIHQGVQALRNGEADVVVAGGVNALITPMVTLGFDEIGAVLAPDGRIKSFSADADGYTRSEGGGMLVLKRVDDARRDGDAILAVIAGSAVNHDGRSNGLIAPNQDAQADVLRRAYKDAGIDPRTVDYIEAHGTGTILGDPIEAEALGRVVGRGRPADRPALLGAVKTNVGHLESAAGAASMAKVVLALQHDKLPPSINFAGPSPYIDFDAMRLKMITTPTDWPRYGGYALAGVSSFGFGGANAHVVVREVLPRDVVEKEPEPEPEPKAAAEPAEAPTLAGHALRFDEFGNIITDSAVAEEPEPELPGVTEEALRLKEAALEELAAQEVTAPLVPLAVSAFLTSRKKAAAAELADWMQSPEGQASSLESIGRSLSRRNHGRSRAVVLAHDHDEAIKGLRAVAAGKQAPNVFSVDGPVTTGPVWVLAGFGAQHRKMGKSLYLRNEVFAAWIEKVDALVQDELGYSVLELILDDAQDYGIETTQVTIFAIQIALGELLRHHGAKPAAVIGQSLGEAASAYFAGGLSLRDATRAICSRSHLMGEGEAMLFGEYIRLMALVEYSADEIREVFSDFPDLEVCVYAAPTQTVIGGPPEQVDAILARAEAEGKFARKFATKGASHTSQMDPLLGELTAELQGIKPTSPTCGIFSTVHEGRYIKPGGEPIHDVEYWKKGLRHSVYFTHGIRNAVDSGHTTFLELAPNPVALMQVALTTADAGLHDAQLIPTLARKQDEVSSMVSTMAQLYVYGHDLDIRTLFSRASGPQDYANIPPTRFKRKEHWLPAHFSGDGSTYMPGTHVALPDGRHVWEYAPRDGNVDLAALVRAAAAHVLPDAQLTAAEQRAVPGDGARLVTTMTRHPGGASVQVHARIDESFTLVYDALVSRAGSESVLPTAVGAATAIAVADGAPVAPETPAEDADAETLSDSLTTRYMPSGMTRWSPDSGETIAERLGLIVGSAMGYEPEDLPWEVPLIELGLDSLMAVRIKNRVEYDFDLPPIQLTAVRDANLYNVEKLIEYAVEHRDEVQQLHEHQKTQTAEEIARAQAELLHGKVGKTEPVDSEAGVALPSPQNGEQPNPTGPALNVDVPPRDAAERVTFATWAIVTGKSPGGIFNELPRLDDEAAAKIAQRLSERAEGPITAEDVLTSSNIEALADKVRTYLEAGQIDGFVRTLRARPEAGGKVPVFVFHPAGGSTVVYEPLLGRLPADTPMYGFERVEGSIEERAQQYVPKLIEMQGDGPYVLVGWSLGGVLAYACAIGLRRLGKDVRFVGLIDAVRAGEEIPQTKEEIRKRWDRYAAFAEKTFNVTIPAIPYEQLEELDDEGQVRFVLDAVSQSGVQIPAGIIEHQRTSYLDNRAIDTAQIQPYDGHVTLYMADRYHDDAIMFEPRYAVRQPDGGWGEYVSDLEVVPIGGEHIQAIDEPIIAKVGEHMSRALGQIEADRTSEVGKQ
UniProt A4I591, 1-473: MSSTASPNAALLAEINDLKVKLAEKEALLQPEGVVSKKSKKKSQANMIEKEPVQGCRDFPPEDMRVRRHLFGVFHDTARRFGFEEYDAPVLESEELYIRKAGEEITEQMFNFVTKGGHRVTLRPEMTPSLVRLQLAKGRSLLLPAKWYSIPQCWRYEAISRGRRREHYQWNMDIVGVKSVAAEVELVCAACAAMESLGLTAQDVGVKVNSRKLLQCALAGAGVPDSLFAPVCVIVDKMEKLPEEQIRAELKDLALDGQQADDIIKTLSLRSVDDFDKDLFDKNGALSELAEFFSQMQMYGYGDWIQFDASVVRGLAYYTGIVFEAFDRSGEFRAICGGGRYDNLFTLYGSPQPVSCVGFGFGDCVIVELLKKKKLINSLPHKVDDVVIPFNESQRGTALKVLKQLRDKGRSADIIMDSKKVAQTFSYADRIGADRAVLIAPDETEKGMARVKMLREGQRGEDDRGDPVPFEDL

Source: ChEMBL document CHEMBL3988442, “University of Dundee, Small-Polar-MMV Screening Library” (2021).

The filed quantity is “Percent Effect” (%). The controls that fix the scale are not given in the record; negative values are as filed. The compounds are a random part of those screened.

Pks13 thioesterase: 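Enzyme assay of the thioesterase domain of polyketide synthase 13; the read-out is not stated. Target: Polyketide synthase Pks13, Mycobacterium tuberculosis (UniProt I6X8D2). Tested at 30 µM. The record gives no direction; the compounds picked for IC50 retests had high values, so higher reads as stronger inhibition. Size under these conditions: about 67,000 compounds, about 300 of them at 50% or above in at least one test.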
LiHisRS: 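Histidine-tRNA ligase, Leishmania infantum (UniProt A4I591). Enzyme assay of histidyl-tRNA synthetase; the read-out is not stated. Concentration: 30 µM. Direction is inferred from retests: higher values go with stronger inhibition. The assay is labelled LdHisRS but filed under L. infantum. Size under these conditions: about 69,000 compounds, about 410 of them at 50% or above in at least one test.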

Compound | Pks13 thioesterase | LiHisRS
CCc1ccc(Cn2nccc2NC(=O)C2CCS(=O)(=O)C2)cc1 (configuration not stated) | 7.855% | 24.39%
CC(=O)N1N=C(c2ccccc2)OC1C(=O)N(C)CCc1ccccc1 (configuration not stated) | 4.864% | -5.941%
COc1ccc(CNC2CCC(O)CC2)cc1OCCCC#N (configuration not stated) | -4.817% | 11.9%
Cc1cc(C)c2c(N3CCN(CCN4CCOCC4)CC3)ncnc2n1 | -11.44% | 22.95%
CCOc1ccccc1CC(=O)N1C[C@@H](C(=O)O)[C@H](c2ccncc2)C1 | 5.718% | 0%
O=C(c1cscn1)N1CCC2(CCN(Cc3nccs3)CC2)C1 | -2.934% | 19%
CC(=O)NCCNC(=O)c1cnc(C(C)(C)C)s1 | 0.6454% | 15.18%
O=C(NCc1cccs1)[C@]12COC[C@H]1CN(c1ncccn1)C2 | 8.494% | 5.263%
O=C(c1cnccn1)N1CCC(F)(F)C2(CCN(c3ccccn3)C2)C1 (configuration not stated) | -33.24% | 13.27%
Cc1cc(F)ccc1N1CCCC(Nc2nccn3cnnc23)C1=O (configuration not stated) | -7.095% | 14.63%
Cc1ccc2c(n1)N(C)CCN(Cc1cnn(C)c1)C2 | -1.95% | -1.923%
c1coc(CN2Cc3ccnn3CC(COCC3CC3)C2)c1 (configuration not stated) | -27.74% | 19.74%
Cc1csc(C2CCCCN2C(=O)c2cnn3ccc(C)nc23)n1 (configuration not stated) | -22.29% | 6.612%
N#CC1(NC(=O)c2nccc3ccccc23)CCC1 | 18.83% | 0%
O=C1COc2cc(C(=O)N3CCCC(n4cccn4)C3)ccc2N1 (configuration not stated) | -6.748% | 6.14%
CN(C)C(=O)CNC(=O)c1ccn(-c2ccc3ccccn23)n1 | 1.66% | 27.27%
NCc1n[nH]c(=O)n1-c1ccccc1Oc1ccccc1 | -26.75% | 11.11%
CNC(=O)c1cnc2c(C)csc2c1 | -42.13% | 17.82%
CN(C)C(=O)c1ccc2c(c1)N(C)C(CC(=O)NCc1ncc[nH]1)CO2 (configuration not stated) | -19.48% | 15.15%
CCCN1CCCn2c(nc(CNC(=O)c3nccn3C)cc2=O)C1 | -41.32% | 17.95%
CCc1nc(CN2CCN(C(=O)N3CCCCC3)CC2)cs1 | -11.75% | 10.71%
Cc1cc(CN(C)C(=O)CC(C)C)no1 | -41.81% | 6.218%
O=C(CCc1ccccc1)N1C[C@H]2CCN[C@H]2C1 | -20.24% | 19.23%
CCC(c1ccccc1)N1CCN(CCO)CC1 (configuration not stated) | -5.462% | 5.357%
CCc1cc(C(=O)N2CCC(C3CCN(c4ncccn4)CC3)C2)on1 (configuration not stated) | -0.7745% | 0%
c1ccc(CN2CCC(NCCSc3cnn[nH]3)C2)cc1 (configuration not stated) | -129.6% | 21.31%
COC(=O)CCNC(=O)c1nc(NS(=O)(=O)c2ccccc2)sc1C | -5.273% | 10.11%
Cc1cccc(COc2ccc(C(C)NS(N)(=O)=O)cc2)c1 (configuration not stated) | 8.457% | 27.06%
Cc1cc(NC(=O)CN2CCn3c(C)nnc3C2)no1 | -8.455% | 3.306%
Cc1nc(C2CCCN2CCCS(=O)(=O)N(C)C)no1 (configuration not stated) | 17.2% | 16.8%
Cc1ccc(C(=O)NCCCNS(C)(=O)=O)cc1-n1cccc1 | -19.74% | 28.57%
CCSCCC(=O)Nc1ncn(Cc2ccccc2)n1 | -12.2% | 14.52%
OCc1ccc(Cl)c(NCc2cccnc2)c1 | -23.51% | 0%
CC(NC(=O)Cn1cccnc1=O)c1ccc(C(F)(F)F)cc1 (configuration not stated) | 0.4381% | 20%
O=C(NCCn1ccnc1)c1cccc(F)c1 | -14.7% | 28.79%
CC(C)NC(=O)N1CCC2(CC(C(=O)NCc3cccnc3)=NO2)C1 (configuration not stated) | -1.985% | 3.774%
Cc1nc(C2CCCN(C(=O)c3ccncc3)C2)c2sccn12 (configuration not stated) | 4.06% | 24.74%
CNC(=O)c1cc2c(nc1N(C)C)CCN(c1ncc(C)cn1)CC2 | -12.07% | 9.901%
COc1ccc2c(c1)OCC(CNC(=O)c1cc[nH]c1C)C2 (configuration not stated) | -29.24% | 15.58%
CN1CCN(C2CCN(CCCOc3ccc(F)cc3)CC2)C1=O | -33.34% | 1.739%
c1csc(CN2CCC3(CCCN3CC3CC3)CC2)n1 | -36.64% | 8.772%
COc1ccc(CNc2cccnc2-n2cccn2)cc1OC | -15% | 6.122%
COc1ccc(Cl)cc1C(=O)N1CCCC(n2nc(C)nc2C)C1 (configuration not stated) | -24.11% | -5.618%
COc1ccccc1Cc1nnc(SCCS(C)(=O)=O)o1 | 1.317% | 12.86%
Cc1nc(NC(=O)C(C)N(C)Cc2cccc(C#N)c2)sc1C (configuration not stated) | -53.77% | 13.33%
Cn1ccnc1CN1CCOC(C)(C(=O)N2CCOCC2)C1 (configuration not stated) | -11.32% | 18.56%
CCCC(C(=O)NC1CCN(S(C)(=O)=O)CC1)n1cccc1 (configuration not stated) | -17.21% | -52.11%
CC(C)(C)Oc1ccncc1NCc1cscn1 | -23.57% | 5%
Cc1cnn(CCNCC(O)COc2ccc(C#N)cc2)c1 (configuration not stated) | -27.39% | 14.61%
Nc1ccnc(CNc2cc(F)ccc2OCC2CCCO2)n1 (configuration not stated) | -29.82% | 20.55%

Once more, the final 3:

{"compound": "CC(C)(C)Oc1ccncc1NCc1cscn1", "Pks13 thioesterase": -23.57, "LiHisRS": 5}
{"compound": "Cc1cnn(CCNCC(O)COc2ccc(C#N)cc2)c1", "stereo": "configuration not stated", "Pks13 thioesterase": -27.39, "LiHisRS": 14.61}
{"compound": "Nc1ccnc(CNc2cc(F)ccc2OCC2CCCO2)n1", "stereo": "configuration not stated", "Pks13 thioesterase": -29.82, "LiHisRS": 20.55}